Data as given in PubChem BioAssay AID652272 (Drosophila RNAi Screening Center, 2013).
Test: 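Genes whose knock-down decreases or increases Hedgehog reporter output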 (primary screen). Cells: Drosophila clone 8 (Cl8) cells. Reagents: long dsRNA against Drosophila genes. Detection: 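Plate reader light from a firefly reporter under a ptc promoter fragment that responds to Hedgehog, with Renilla light as transfection reference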. Direction: firefly Hh reporter signal: higher = more ptc reporter light; Renilla reference signal: higher = more Renilla control light. Rule for the call: 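Called a hit if the two-replicate mean z-score lies below -2 or above +3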. Meaning of the calls: active = hit: reporter lowered or raised; inactive = not a hit.
The deposit covers about 21,000 reagents; shown is a random part of those that have a named target and a result. Of all reagents, 503 (2.4%) got an active call. 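Raw plate light values, not normalised; calls rest on replicate z-scores that were not deposited; hits include reporter decreases as well as increases.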 The numbers tell different reagents against one gene apart. No sequences are given here. Not stated in the record: the amount of reagent, the time to read-out.

predicted target,reagent,"firefly Hh reporter signal, replicate 1","firefly Hh reporter signal, replicate 2","firefly Hh reporter signal, replicate 3","Renilla reference signal, replicate 1","Renilla reference signal, replicate 2",Outcome
CG4872,1,89964,66834,,2300,1556,inactive
blo (bloated),1,74982,43341,,3360,1968,inactive
CG14154,1,62777,40828,61560,2757,4198,inactive
CG12020,1,64224,37552,,2858,2808,inactive
Sap130 (Sin3A-associated protein 130),1,36848,31200,51792,5360,4795,inactive
CG9289,1,85883,46224,,2213,4434,inactive
"Prosalpha6T (Proteasome alpha6 subunit, Testis-specific)",1,1.03e5,54391,,2713,4731,inactive
Dus2 (Dihydrouridine synthase 2),1,1.44e5,75109,,3335,1907,inactive
GILT1 (Gamma-interferon-inducible lysosomal thiol reductase 1),1,1.86e5,75155,,6553,2438,inactive
Semp1 (Seminal metalloprotease-1),1,1.11e5,82864,,2708,6369,inactive
Ubc84D (Ubiquitin conjugating enzyme 84D),1,56844,70985,,1649,2443,inactive
CG4594,1,80555,47021,,2756,2301,inactive
HGTX,1,2.17e5,,,4745,,inactive
HGTX,2,96420,,,4438,2928,inactive
CG13050,1,1.29e5,,,5688,3852,inactive
slgA (sluggish A),1,1.68e5,1.36e5,,3853,3412,inactive
Uvrag (UV-resistance associated gene),1,1.02e5,81776,,4667,3437,inactive
TBC1D5 (TBC1 domain family member 5),1,98492,1.18e5,,4038,4408,inactive
Acp29AB (Accessory gland protein 29AB),1,65877,35430,,1994,4940,inactive
Nmdar2 (NMDA receptor 2),1,1.21e5,2.46e5,,4832,9595,inactive
Nmdar2 (NMDA receptor 2),2,1.24e5,2.90e5,,4448,11373,inactive
Nmdar2 (NMDA receptor 2),3,1.04e5,2.13e5,,3936,8345,inactive
CG42241 (retired record),1,1.52e5,2.72e5,,3931,12004,inactive
CG7296,1,4.33e5,7.64e5,2.45e5,27574,5802,inactive
Sox100B,1,75702,80758,,4071,4370,active
Sox100B,2,1.00e5,1.48e5,,3924,4427,inactive
CG3061,1,74636,84843,,1632,2121,inactive
CG31705,1,71298,75793,,3568,3527,inactive
AMPdeam (AMP deaminase),1,8.93e5,2.88e5,,50672,8123,inactive
AMPdeam (AMP deaminase),2,86323,70448,,1922,1590,inactive
AMPdeam (AMP deaminase),3,1.46e5,2.64e5,,5073,12205,inactive
AMPdeam (AMP deaminase),4,1.14e5,2.38e5,,2896,10914,inactive
CG13280,1,79800,57046,,2157,5954,inactive
didum (dilute class unconventional myosin),1,72153,50675,,1629,4192,inactive
cysu (Curly Su),1,75409,83846,,1888,1996,inactive
CG5665,1,87088,1.29e5,,2449,4144,inactive
Scm (Sex comb on midleg),1,67728,1.04e5,,1959,2674,inactive
CG11626,1,6.10e5,93801,,28850,2147,inactive
Fpgs1 (Folylpolyglutamate synthase 1),1,1.04e5,2.29e5,,3328,7744,inactive
CG34181,1,5.31e5,1.41e5,,27474,8465,inactive
GILT2 (Gamma-interferon-inducible lysosomal thiol reductase 2),1,1.17e5,1.04e5,,5461,3744,inactive
CG4049,1,82838,56139,,2226,5648,inactive
lncRNA:CR43434 (long non-coding RNA:CR43434),1,40250,1.42e5,,10541,3896,inactive
epsilonTry (epsilonTrypsin),1,88428,47273,,2253,3360,inactive
p (pink),1,81549,1.10e5,,3634,3063,inactive
modSP (modular serine protease),1,1.75e5,1.48e5,,5741,4112,inactive
modSP (modular serine protease),2,59864,88580,,2178,2483,inactive
CG5382,1,1.14e5,87398,,4897,3472,inactive
CG8773,1,1.43e5,1.22e5,,6643,4645,inactive
Elk (Eag-like K[+] channel),1,1.18e5,74146,,4792,3285,inactive
CG10486,1,62166,43617,,6677,3446,inactive
CG9795,1,1.17e5,90888,,4934,3226,inactive
Mcm2 (Minichromosome maintenance 2),1,86580,1.35e5,,1960,3728,inactive
CG4911,1,63936,39404,,3145,1783,inactive
Pex7 (Peroxin 7),1,31841,57077,,4456,3789,inactive
Pif1 (Pif1 DNA helicase),1,80624,65184,,4691,3026,inactive
CG17650,1,96955,78419,,2244,2023,inactive

Reformatted: 4 of the entries above
HGTX #2
- firefly Hh reporter signal, replicate 1: 96420
- Renilla reference signal, replicate 1: 4438
- Renilla reference signal, replicate 2: 2928
- Outcome: inactive

CG13050
- firefly Hh reporter signal, replicate 1: 1.29e5
- Renilla reference signal, replicate 1: 5688
- Renilla reference signal, replicate 2: 3852
- Outcome: inactive

slgA (sluggish A)
- firefly Hh reporter signal, replicate 1: 1.68e5
- firefly Hh reporter signal, replicate 2: 1.36e5
- Renilla reference signal, replicate 1: 3853
- Renilla reference signal, replicate 2: 3412
- Outcome: inactive

Uvrag (UV-resistance associated gene)
- firefly Hh reporter signal, replicate 1: 1.02e5
- firefly Hh reporter signal, replicate 2: 81776
- Renilla reference signal, replicate 1: 4667
- Renilla reference signal, replicate 2: 3437
- Outcome: inactive
